At least one structure is not confirmed: it was looked up by name or label, or the drawing left a doubt.
Tests used:
Conditions in all cases: Example 3, Table 6
[1] = target: N1-BR18 (IAV neuraminidase) (Influenza A virus, UniProt A0A0X9QTS2); test: Fluorescence-based inhibition assay (substrate Neu5Acα2-3GalβMU, β-galactosidase coupled); type: biochemical, influenza A virus A/Brisbane/02/2018 (H1N1)
[2] = target: NB-Aus21 (IBV neuraminidase) (Influenza B virus, UniProt A0A1X9RX69); type: biochemical, influenza B virus B/Austria/1359417/2021
[3] = target: N1-Vic19 (IAV neuraminidase); test: Fluorescence-based inhibition assay (substrate Neu5Acα2-3GalβMU, β-galactosidase coupled); type: biochemical, influenza A virus A/Victoria/2570/2019 (H1N1)
[4] = target: N2-Dar21 (IAV neuraminidase) (Influenza A virus, UniProt A0A193ACB1); test: as above; type: biochemical, influenza A virus A/Darwin/9/2021 (H3N2)
[5] = target: N2-Kan17 (IAV neuraminidase) (Influenza A virus, UniProt A0A193ACB1); test: as above; type: biochemical, influenza A virus A/Kansas/14/2017 (H3N2)
[6] = target: NB-Phu13 (IBV neuraminidase) (Influenza B virus, UniProt A0A1S5RAG6); test: as above; type: biochemical, influenza B virus B/Phuket/3073/2013

Structure (SMILES): CC(=O)N[C@H]1[C@H]([C@H](O)[C@H](O)CO)OC(C(=O)O)=C[C@@H]1N [4NH2Neu5Ac2en, 4-amino-2,3-dehydro-N-acetylneuraminic acid, reference compound]
- IC50 against N1-BR18 [1]: (1.8 ± 0.2) × μM
- IC50 against NB-NB-Aus21 [2]: (9.1 ± 0.7) × μM
- IC50 against N1-Vic19 [3]: (1.3 ± 0.1) × μM
- IC50 against N2-Dar21 [4]: (2.1 ± 0.1) × μM
- IC50 against N2-Kan17 [5]: (2.0 ± 0.1) × μM
- IC50 against NB-Phu13 [6]: (1.3 ± 0.1) × μM

Reference: US20260242405A1, “N-DERIVATIZED SIALIC ACIDS AND RELATED SIALOSIDES” (THE REGENTS OF THE UNIVERSITY OF CALIFORNIA, priority 2023, published 2026)
